From PMC7819943, “Rice protein-binding microarrays: a tool to detect cis-acting elements near promoter regions in rice”
Some of the results follow.

Protein sequences, listed by entry. Tags and fused reporters are not part of them.
UniProt Q0JBA9, entry or part of it: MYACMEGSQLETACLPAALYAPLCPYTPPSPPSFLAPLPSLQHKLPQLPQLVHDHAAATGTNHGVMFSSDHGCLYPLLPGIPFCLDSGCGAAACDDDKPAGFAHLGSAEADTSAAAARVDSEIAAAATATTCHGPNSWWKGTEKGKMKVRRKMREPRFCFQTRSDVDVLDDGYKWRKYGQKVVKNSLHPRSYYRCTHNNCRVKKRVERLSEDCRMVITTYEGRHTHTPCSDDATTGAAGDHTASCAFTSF

molecular target: OsWRKY34 (Oryza sativa, UniProt Q0JBA9 1-250); assay: protein-binding microarray (RPBM); PBS, 2% BSA, 51.3 ng/ul salmon testes DNA, 50 uM zinc acetate, 200 nM TF, 25 C, 1 h; high values mean tight binding; conditions: protein: recombinant; tags: N-terminal polyhistidine and DsRed monomer fusion (pET32a); label: CyDye5-dUTP incorporated in the synthesized complementary strand; 3' TTTTT single-stranded linker to array surface; dsDNA, one strand shown
In short: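 Ni–NTA purification followed expression in E. coli BL21-CodonPlus of transcription factors fused N-terminally to a polyhistidine tag and DsRed. At 200 nM in PBS with 2% BSA, salmon testes DNA and 50 µM zinc acetate, the protein was incubated for 1 h at 25 °C with a custom Agilent array that had been primer-extended with Cy5-dUTP and blocked with 2% BSA. After washing, the array was read on an Axon 4000B scanner. The binding signal is per-feature fluorescence intensity in arbitrary units.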

Sequence | binding signal
TACACCCTTGGGCCCACCTGTCAACCTCTCACCCTATATTCGGAGTCACCTAGTGCAG | 11900 fluorescence intensity (a.u.)
GTTGACTTTTTGATTAACGTTTGACCATTCGTTTTATTCACGGAGTCACCTAGTGCAG | 9480 fluorescence intensity (a.u.)
GTAAAGAACCTTCAATTAGTGTCCTTTGTTCTCATCATTGCGGAGTCACCTAGTGCAG | 9170 fluorescence intensity (a.u.)
AACATCTGCCTGCTCACTAAAATGATCTACCGGCTTTTTTCGGAGTCACCTAGTGCAG | 8620 fluorescence intensity (a.u.)
TTACTATTGTGGTTTAGATTCGGATTTGCATCTTGTATTTCGGAGTCACCTAGTGCAG | 10300 fluorescence intensity (a.u.)
TCTCATGAGCTAGCGCGCCCCGCGCGTACAGCCCCGCATGCGGAGTCACCTAGTGCAG | 9590 fluorescence intensity (a.u.)
AGCTAAGACACCACCACCTCCTCACATCTCATCTCATCATCGGAGTCACCTAGTGCAG | 10500 fluorescence intensity (a.u.)
TCCGTGTTATCGTTTATATTCCAATAGTCGGTGAATTACTCGGAGTCACCTAGTGCAG | 8170 fluorescence intensity (a.u.)
TACGTGCCGGTCCCCACTACATCCATCGTCCGATCTCGCGCGGAGTCACCTAGTGCAG | 9660 fluorescence intensity (a.u.)
GAATCTCTTTTGCAGCAGTTGTACACTTGTATTTTTGCCACGGAGTCACCTAGTGCAG | 8530 fluorescence intensity (a.u.)
CTCGCACCGCTACACCCGGGCCCACCCCGCCCATCCCCAGCGGAGTCACCTAGTGCAG | 9710 fluorescence intensity (a.u.)
AATACGGGACCTTTTCATTTTTCCTTTTCCGGCGAGACAACGGAGTCACCTAGTGCAG | 8300 fluorescence intensity (a.u.)
AGAACTTGAGTAGCTTCTACCTCCATCCAATCCACCAACACGGAGTCACCTAGTGCAG | 8120 fluorescence intensity (a.u.)
CCCTCGTGCTACTTTGACCCATGACTACTTCTCTCTCACGCGGAGTCACCTAGTGCAG | 10200 fluorescence intensity (a.u.)
GCCGGTGGTCTTCCTCGTGCCGAGCCGACGCCACCGCCGGCGGAGTCACCTAGTGCAG | 11000 fluorescence intensity (a.u.)
GCGTTTGTGTTCGTGAGTGTGAGAGTATTCCTGGGCTTAGCGGAGTCACCTAGTGCAG | 9140 fluorescence intensity (a.u.)
TTGTTGTTGGTTTTTCCTTTCTTAGGTTGACAGCTTGCCTCGGAGTCACCTAGTGCAG | 9990 fluorescence intensity (a.u.)
CTTGCTACCCACGCGCAGCTCCGCCGCCCTCGATCTCTCTCGGAGTCACCTAGTGCAG | 10600 fluorescence intensity (a.u.)
GACGTTTTGATATTGACCAAAGTCAAACTGGTTTAAGTTTCGGAGTCACCTAGTGCAG | 9140 fluorescence intensity (a.u.)
GTCATCAGGCCTCGTCCTTCGTCCATGCCAACGCCCGTGACGGAGTCACCTAGTGCAG | 12800 fluorescence intensity (a.u.)
TTATTTTATCTCGTGCTCATGACTGAATCATTTAGCTACCCGGAGTCACCTAGTGCAG | 8040 fluorescence intensity (a.u.)

Sequence | binding signal
CTCTGTCCTATTGGAACATTTCTCTGAAGCAACACCATATCGGAGTCACCTAGTGCAG | 9340 fluorescence intensity (a.u.)
TTTGCCACATCACTATCGATTTCCATCCGTTGGATCACTCCGGAGTCACCTAGTGCAG | 8040 fluorescence intensity (a.u.)
CCTAATTGTGTTTCTATATGGACTCTATACTCTACTTCTACGGAGTCACCTAGTGCAG | 10800 fluorescence intensity (a.u.)
TTTCACAATATAAGTCATTCTAGCATTTCCCACATTCATACGGAGTCACCTAGTGCAG | 8510 fluorescence intensity (a.u.)
GGTTTGGGGTGGTTTATTGTACAATAAAGATAAAGTTACCCGGAGTCACCTAGTGCAG | 19000 fluorescence intensity (a.u.)
TATGTGCGTGGTGGGCCCTGATCCTATCCTACGTGTCATACGGAGTCACCTAGTGCAG | 8740 fluorescence intensity (a.u.)
CATGTCGTCGTCGTGGTGGTGGTGGTGGTGGTGGGGCGGGCGGAGTCACCTAGTGCAG | 43400 fluorescence intensity (a.u.)
CCCACCGCGCTCGCTCCCTCGTCGTCGTCGCAGTCAACCCCGGAGTCACCTAGTGCAG | 8120 fluorescence intensity (a.u.)
ACCAGATTCACCGTGATTAGTCTCACACTTAATAAATCGACGGAGTCACCTAGTGCAG | 8090 fluorescence intensity (a.u.)
ACCAACACTATTCATCTAAAATTTGTCATTTTATAACCAACGGAGTCACCTAGTGCAG | 8250 fluorescence intensity (a.u.)
ACTGGTTTATTATCTTTGTTTGTCAAGATCCCAAGAACATCGGAGTCACCTAGTGCAG | 8720 fluorescence intensity (a.u.)
GCTAGGTCAACTTTGCTCTCAGCTCTCGCTCCCGATGCCACGGAGTCACCTAGTGCAG | 9760 fluorescence intensity (a.u.)
ACGAACGGTCGAACATATGTTAAAAAGTCAACGGTGTCAACGGAGTCACCTAGTGCAG | 8910 fluorescence intensity (a.u.)
ACTTTTTTTCGGCGGACGATGGGCCCAACACAACATCTCGCGGAGTCACCTAGTGCAG | 12900 fluorescence intensity (a.u.)
GGCTACCCCATCGCCACCACCACCACCACCGCATCTCTCTCGGAGTCACCTAGTGCAG | 10900 fluorescence intensity (a.u.)
AAGTCATTCTAGTATTTCCTACATTCATATTTATGCTAATCGGAGTCACCTAGTGCAG | 8650 fluorescence intensity (a.u.)
GTTTGACTTTGACCTGAAACGGAGGGAGTAGTATATTGGGCGGAGTCACCTAGTGCAG | 8830 fluorescence intensity (a.u.)
CACACGCTCGCATCGCGGCTGCCTTTGGACCTCGGACTCGCGGAGTCACCTAGTGCAG | 8180 fluorescence intensity (a.u.)
TCTCAACCAAAAAAAAAAACTTCCTTTATTCCTTTTTTTTCGGAGTCACCTAGTGCAG | 8050 fluorescence intensity (a.u.)
AGTTCCGCCTCGGTTGGCACCCAAAGTAGGTCCTTAGTATCGGAGTCACCTAGTGCAG | 9700 fluorescence intensity (a.u.)
GTATATTTTAACATTGATTACCTCGTACACCTCATCTGTCCGGAGTCACCTAGTGCAG | 9710 fluorescence intensity (a.u.)

Sequence | binding signal
TCTTTTTGCAGCTGACATGTGGGGCCACACTTTTTTTTATCGGAGTCACCTAGTGCAG | 8190 fluorescence intensity (a.u.)
CCGCAACGACCACAAATCACCATCTGCTTTCTAGTTTCTTCGGAGTCACCTAGTGCAG | 8330 fluorescence intensity (a.u.)
CGGTTTTGACGGACGTGGTGCCCACGTGGCTAGTTTGACTCGGAGTCACCTAGTGCAG | 8980 fluorescence intensity (a.u.)
CCCGGGCATCTCGCCACACCGTTACACACCGTTGCATTCCCGGAGTCACCTAGTGCAG | 9620 fluorescence intensity (a.u.)
GCTATGTTGTGATTTGTGGACTGACCAAGATTGGACTTCTCGGAGTCACCTAGTGCAG | 8220 fluorescence intensity (a.u.)
ACATGCAACCACACAACTCAGCTACAATACCATCAAGATGCGGAGTCACCTAGTGCAG | 8210 fluorescence intensity (a.u.)
GCACATATGTGGCATTCTGTTCATCTCCTGGCATTTGTGTCGGAGTCACCTAGTGCAG | 8230 fluorescence intensity (a.u.)
CATTTAAAGATTAGAGACGATGGTGGTGTTGACCAAGATTCGGAGTCACCTAGTGCAG | 8430 fluorescence intensity (a.u.)
CCCTTTGCCTTGGATTTTCCACTTGCACTTGCACTTCCTCCGGAGTCACCTAGTGCAG | 12200 fluorescence intensity (a.u.)
GCATCCATTCTCGATTGCTTTCTTTCAGCCATGTTGATGCCGGAGTCACCTAGTGCAG | 8440 fluorescence intensity (a.u.)
ACCTTTCCAATACTTTTCAATATCCGTTTCTGCCACGCCACGGAGTCACCTAGTGCAG | 8830 fluorescence intensity (a.u.)
AGTACTCTGTCCTTGTCATGCACGATTCACTTACTTCCCACGGAGTCACCTAGTGCAG | 10300 fluorescence intensity (a.u.)
ACGGAGAGACCACACTTAACACTTGCATTAGACCACAAGTCGGAGTCACCTAGTGCAG | 8210 fluorescence intensity (a.u.)
TTCATATGTATTTCATGCGTTTTGCAATCCTCTGTTTAACCGGAGTCACCTAGTGCAG | 9270 fluorescence intensity (a.u.)
CACCGCGCACCGATCAACCTTGGCCTGACCAACCTCCCCACGGAGTCACCTAGTGCAG | 9210 fluorescence intensity (a.u.)
GCCTGAAGAGGAATCGGCCTACGTCTGACGCATACATTCTCGGAGTCACCTAGTGCAG | 10400 fluorescence intensity (a.u.)
ACTGAAATTATGGTATTGATCGTTTTTTTTTCAAAATTTTCGGAGTCACCTAGTGCAG | 9000 fluorescence intensity (a.u.)
CTACCAACCTGTTCATCATGGCCCGACTCCATTCATGTCACGGAGTCACCTAGTGCAG | 10300 fluorescence intensity (a.u.)
ATGTTATGCTACTTATTCATGTTTCAATCCATATTCAAATCGGAGTCACCTAGTGCAG | 11000 fluorescence intensity (a.u.)
GGACACGTGGCAGTGTGGGTGGTGGGGTCCTAGGGGCGTCCGGAGTCACCTAGTGCAG | 15900 fluorescence intensity (a.u.)
TTTATTTTCTTTCTCTCTCTCTCGGCCTTAATCGCATATACGGAGTCACCTAGTGCAG | 12600 fluorescence intensity (a.u.)

Pulled one by one from above:
Sequence | binding signal
TCTCATGAGCTAGCGCGCCCCGCGCGTACAGCCCCGCATGCGGAGTCACCTAGTGCAG | 9590 fluorescence intensity (a.u.)
CTACCAACCTGTTCATCATGGCCCGACTCCATTCATGTCACGGAGTCACCTAGTGCAG | 10300 fluorescence intensity (a.u.)
GCTAGGTCAACTTTGCTCTCAGCTCTCGCTCCCGATGCCACGGAGTCACCTAGTGCAG | 9760 fluorescence intensity (a.u.)

(continued)

Sequence | binding signal
TCTGTCTCAACTCCCATTTTTCACCTTGGGACAGAGGGCACGGAGTCACCTAGTGCAG | 11000 fluorescence intensity (a.u.)
GGGCATATTTCTCTATTTTTCTATTCCTATGGTTTGAAATCGGAGTCACCTAGTGCAG | 9080 fluorescence intensity (a.u.)
AAGTTCTTAAGTCTCAACTACTCCTAGAGTCCTATTATTCCGGAGTCACCTAGTGCAG | 8130 fluorescence intensity (a.u.)
TTTGTTTTGTTATTAGTCTATGTTTAATACTAGTATATTTCGGAGTCACCTAGTGCAG | 8990 fluorescence intensity (a.u.)
TCATCACAGTCTTTTTTTTTCTCTTCATCCTTAATCCCTCCGGAGTCACCTAGTGCAG | 8030 fluorescence intensity (a.u.)
ACACTACTCTTCTCTCTCTTTTTTATCTTTTTAAAATATACGGAGTCACCTAGTGCAG | 8670 fluorescence intensity (a.u.)
TTGTACGGGTACTATTCACTGTCTGATATTATTATTTTTGCGGAGTCACCTAGTGCAG | 8460 fluorescence intensity (a.u.)
GGGATGGAGGTAGTATTTGTTAGTGGCTTATCATACATTTCGGAGTCACCTAGTGCAG | 10800 fluorescence intensity (a.u.)
AACAAATATCGTTCCTCGGTGTCGTCATCGTGTTTGGATCCGGAGTCACCTAGTGCAG | 8260 fluorescence intensity (a.u.)
AATCACCACCTCGCCTCGCGTCACCACCTCTCGCCGCCGCCGGAGTCACCTAGTGCAG | 9010 fluorescence intensity (a.u.)
TGCTTGGTTGCCACATCTTTCTATGCATTCACAATTCCAGCGGAGTCACCTAGTGCAG | 9950 fluorescence intensity (a.u.)
ATCTCTATGTTTTCTTATCCATATTATTTAAATTTTATTTCGGAGTCACCTAGTGCAG | 11800 fluorescence intensity (a.u.)
CACCATGTGCTACATTTGTCTTTTCTTTCAAGTTATTTATCGGAGTCACCTAGTGCAG | 9050 fluorescence intensity (a.u.)
GGCCTAACTGTCCTATGCGCTAGTCGCCTCCGACCAAACGCGGAGTCACCTAGTGCAG | 9270 fluorescence intensity (a.u.)
TGCCCACCACGCGTCTCTCCCAAAATTCGCGGCCTCCTATCGGAGTCACCTAGTGCAG | 8730 fluorescence intensity (a.u.)
GTACACGTTACCCGCGTGGGTGTGGGTATGGGGATGATTTCGGAGTCACCTAGTGCAG | 11700 fluorescence intensity (a.u.)
TGAACGTTTTTTTTGGGGTTATTGATGATTGAAATTTGCTCGGAGTCACCTAGTGCAG | 9790 fluorescence intensity (a.u.)
GTTGAGGGATTACTAACTGGATGGGGTATTTCAGTAGGAACGGAGTCACCTAGTGCAG | 9450 fluorescence intensity (a.u.)
CTGATTTTGCAGTAGCATCTTTAGGTTGTTTTTTTCCTGACGGAGTCACCTAGTGCAG | 11200 fluorescence intensity (a.u.)
ACCACACTCCACTCCACTCCACTACTGCGCTTAGCTAATTCGGAGTCACCTAGTGCAG | 10800 fluorescence intensity (a.u.)
GCCCAGGGAATATTCTCTTCTTCTTCTTCTATTCCACGTCCGGAGTCACCTAGTGCAG | 8180 fluorescence intensity (a.u.)
